PubChem BioAssay AID504793, Drosophila RNAi Screening Center, 2011

Purpose: 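Genes required for cells to halt at G2/M after double-strand DNA breaks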 (primary screen)
Cell system: Drosophila S2R+ cells
Reagent: long dsRNA against Drosophila genes, about 0.25 µg dsRNA per well
Timing: 4 days of dsRNA, then 4 hours of drug before read-out
Conditions: doxorubicin 0.5 µM for 4 hours to cause double-strand breaks, in cells also given a low, harmless dose of dsRNA against nbs to sensitise the assay
Read-out: 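Mitotic index as the number of phospho-histone H3-positive cells in each well following doxorubicin, given as raw counts without normalisation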
Reading the numbers: mitotic cells: higher = more cells in mitosis, weaker G2 arrest
Hit rule: 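a call needs confirmation in secondary tests, with other dsRNAs and a check of mitotic timing without damage, not just a high primary count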
Calls: active = confirmed in follow-up tests; inactive = not confirmed
The screen tested about 23,000 reagents; below is an unselected part of those with a known target gene and a result. Of all reagents, 62 (0.27%) are marked active. 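Calls come from follow-up tests whose scores are not deposited, so confirmed genes may have low counts here; counts are not normalised per plate.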 Raw values vary from plate to plate and are shown uncorrected. A plus sign joins genes that one reagent is predicted to hit.

gene	dsRNA	mitotic cells, replicate 1	outcome
Grik (GeneID 42476)	DRSC15846	8	inactive
Grik (GeneID 42476)	DRSC15847	7	inactive
Grik (GeneID 42476)	DRSC26067	6	inactive
Pus1 (GeneID 42440)	DRSC15548	11	inactive
Pus1 (GeneID 42440)	DRSC27461	4	inactive
TfIIA-S (GeneID 42822)	DRSC16883	16	inactive
Phae1 (GeneID 34637)	DRSC02554	12	inactive
CG34315 + Orc3	DRSC07642	6	inactive
CG34315 + Orc3	DRSC25371	6	inactive
eIF4E7 (GeneID 31059)	DRSC17782	20	inactive
eIF4E7 (GeneID 31059)	DRSC18623	9	inactive
CG15252 (GeneID 31931)	DRSC17981	10	inactive
CG15252 (GeneID 31931)	DRSC29645	4	inactive
CG6695 (GeneID 42937)	DRSC16098	7	inactive
CG6695 (GeneID 42937)	DRSC24623	8	inactive
mgl (GeneID 8674055)	DRSC17800	7	inactive
mgl (GeneID 8674055)	DRSC17823	6	inactive
mgl (GeneID 8674055)	DRSC17859	17	inactive
mgl (GeneID 8674055)	DRSC23464	2	inactive
l(2)41Ab (GeneID 5740691)	DRSC21007	9	inactive
Cyp308a1 (GeneID 32859)	DRSC20238	6	inactive
Cyp308a1 (GeneID 32859)	DRSC26958	9	inactive
Frl (GeneID 39561)	DRSC09300	9	inactive
Frl (GeneID 39561)	DRSC10027	6	inactive
Frl (GeneID 39561)	DRSC10716	6	inactive
Frl (GeneID 39561)	DRSC28783	5	inactive
Rm62 (GeneID 40739)	DRSC12365	3	inactive
Rm62 (GeneID 40739)	DRSC25109	7	inactive
CG11112 (GeneID 35658)	DRSC06038	9	inactive
CG11112 (GeneID 35658)	DRSC25552	5	inactive
CG43367 (GeneID 38505)	DRSC08299	1	inactive
CG43367 (GeneID 38505)	DRSC08301	6	inactive
CG43367 (GeneID 38505)	DRSC08309	6	inactive
CG43367 (GeneID 38505)	DRSC24732	4	inactive
Alg12 (GeneID 41191)	DRSC16416	4	inactive
cindr (GeneID 43654)	DRSC14126	4	inactive
S6kII (GeneID 33139)	DRSC20645	4	inactive
WASp (GeneID 43402)	DRSC15032	6	inactive
WASp (GeneID 43402)	DRSC26170	10	inactive
CG12716 (GeneID 32248)	DRSC19493	8	inactive
CG12716 (GeneID 32248)	DRSC28802	9	inactive
ush (GeneID 33225)	DRSC00843	4	inactive
ush (GeneID 33225)	DRSC26524	1	inactive
prel (GeneID 35969)	DRSC07271	3	inactive
GNBP3 (GeneID 39020)	DRSC11170	3	inactive
Tsp42Eo (GeneID 35625)	DRSC06184	7	inactive
Ugt37A3 (GeneID 41574)	DRSC15937	8	inactive
CG11474 (GeneID 37514)	DRSC04112	3	inactive
Cpr57A + Obp57d	DRSC06708	11	inactive
Cpr57A + Obp57d	DRSC22719	11	inactive
CG15185 (GeneID 40798)	DRSC12565	6	inactive
Srg1 (GeneID 42969)	DRSC14640	7	inactive
Srg1 (GeneID 42969)	DRSC29445	3	inactive
shi (GeneID 45928)	DRSC20373	6	inactive
shi (GeneID 45928)	DRSC29498	5	inactive
CG2070 (GeneID 35706)	DRSC06814	5	inactive
CG14535 (GeneID 34073)	DRSC02393		inactive
NHP2 (GeneID 44005)	DRSC11229	4	inactive
NHP2 (GeneID 44005)	DRSC24264	5	inactive
CheB42a (GeneID 2768721)	DRSC22881	6	inactive
Ir31a (GeneID 318912)	DRSC22358	16	inactive
BNIP3 (GeneID 40278)	DRSC11761	5	inactive
CG9360 (GeneID 32128)	DRSC20180	23	inactive
trn (GeneID 39491)	DRSC11407	4	inactive
CG31810 (GeneID 318955)	DRSC01560	9	inactive
Urm1 (GeneID 2768949)	DRSC22941	6	inactive
Urm1 (GeneID 2768949)	DRSC29463	4	inactive
Tmem63 (GeneID 35779)	DRSC06063	7	inactive
Tmem63 (GeneID 35779)	DRSC27402	4	inactive
CG18327 (GeneID 36567)	DRSC06722	5	inactive
CG18327 (GeneID 36567)	DRSC24393	11	inactive
rpk (GeneID 40580)	DRSC12386	1	inactive
rpk (GeneID 40580)	DRSC21656	4	inactive
Es2 (GeneID 31780)	DRSC18663	7	inactive
Es2 (GeneID 31780)	DRSC27829	11	inactive
AttC (GeneID 36484)	DRSC06886	9	inactive
AttC (GeneID 36484)	DRSC26453	6	inactive
TotM (GeneID 33764)	DRSC02355	14	inactive
ldd (GeneID 318066)	DRSC20558	6	inactive
ldd (GeneID 318066)	DRSC22696	6	inactive
CG33330 (retired record) (GeneID 2768667)	DRSC13053	12	inactive
CG33330 (retired record) (GeneID 2768667)	DRSC15495	12	inactive
CG33330 (retired record) (GeneID 2768667)	DRSC27452	1	inactive
CG10752 (GeneID 39467)	DRSC09799	8	inactive
GalT1 (GeneID 36279)	DRSC22238	3	inactive
RFeSP (GeneID 44390)	DRSC00702	11	inactive
RFeSP (GeneID 44390)	DRSC27607	3	inactive
HPS1 (GeneID 36656)	DRSC06195	2	inactive
bisc (GeneID 37443)	DRSC04083	6	inactive
bisc (GeneID 37443)	DRSC28459	11	inactive
CG10947 (GeneID 35309)	DRSC02111	9	inactive
CG10947 (GeneID 35309)	DRSC27404	10	inactive
CG1889 (GeneID 31928)	DRSC18195	9	inactive
CG1889 (GeneID 31928)	DRSC27433	4	inactive
Grip91 (GeneID 48481)	DRSC20249	108	inactive
CG11307 (GeneID 40400)	DRSC11648	23	inactive
CG11307 (GeneID 40400)	DRSC26602	17	inactive
CG10116 (GeneID 39515)	DRSC09700	2	inactive
CG3662 (GeneID 33260)	DRSC00626	4	inactive
Incenp (GeneID 35649)	DRSC06116	6	inactive
Incenp (GeneID 35649)	DRSC21950	7	inactive
Incenp (GeneID 35649)	DRSC28036		inactive
CG30283 (GeneID 37454)	DRSC04071	9	inactive
CG30283 (GeneID 37454)	DRSC24411	12	inactive
CG32751 (GeneID 318189)	DRSC21770	11	inactive
mthl14 (GeneID 318046)	DRSC07865	10	inactive
Arf4 (GeneID 43823)	DRSC17195	26	inactive
Arf4 (GeneID 43823)	DRSC29296	11	inactive
Traf6 (GeneID 31746)	DRSC18725	15	inactive
CG13924 (GeneID 38247)	DRSC08393	9	inactive
CG31064 (GeneID 43277)	DRSC14756	12	inactive
CG31064 (GeneID 43277)	DRSC15941	10	inactive
CG31064 (GeneID 43277)	DRSC15942	7	inactive
CG31064 (GeneID 43277)	DRSC15943	14	inactive
Nuf2 (GeneID 33992)	DRSC03123	13	inactive
CG13392 (GeneID 34157)	DRSC02262	5	inactive
Gr68a (GeneID 39324)	DRSC10803	6	inactive
CG31326 (GeneID 41728)	DRSC16532	1	inactive
CG31326 (GeneID 41728)	DRSC26494	4	inactive
kin17 (GeneID 40242)	DRSC11890	4	inactive
kin17 (GeneID 40242)	DRSC26821	6	inactive
Or85a (GeneID 40991)	DRSC16764	6	inactive
Adat1 (GeneID 34787)	DRSC03479	6	inactive
Adat1 (GeneID 34787)	DRSC27220	6	inactive
Lcp65Ag3 + Lcp65Ag2 + Lcp65Ag1	DRSC11214	4	inactive
Lcp65Ag3 + Lcp65Ag2 + Lcp65Ag1	DRSC11215	4	inactive
gw (GeneID 43808)	DRSC17135	7	inactive
gw (GeneID 43808)	DRSC17160	4	inactive
gw (GeneID 43808)	DRSC23497	2	inactive
Hey (GeneID 35764)	DRSC23030	13	inactive
azot (GeneID 35751)	DRSC06051	1	inactive
azot (GeneID 35751)	DRSC25443	5	inactive
COX7B (GeneID 50266)	DRSC10895	4	inactive
CG31360 (GeneID 318698)	DRSC13255	10	inactive
CG6683 (GeneID 38970)	DRSC10694	10	inactive
CG6683 (GeneID 38970)	DRSC25674	8	inactive
CG31928 (GeneID 326175)	DRSC00293	10	inactive
SP1173 (GeneID 38744)	DRSC11277	3	inactive
UQCR-14L (GeneID 43369)	DRSC15288	8	inactive
UQCR-14L (GeneID 43369)	DRSC22425	5	inactive
UQCR-14L (GeneID 43369)	DRSC25417	7	inactive

Quoted from the listing (20 entries):
gene	dsRNA	mitotic cells, replicate 1	outcome
Grik (GeneID 42476)	DRSC26067	6	inactive
Pus1 (GeneID 42440)	DRSC15548	11	inactive
Pus1 (GeneID 42440)	DRSC27461	4	inactive
TfIIA-S (GeneID 42822)	DRSC16883	16	inactive
Phae1 (GeneID 34637)	DRSC02554	12	inactive
CG34315 + Orc3	DRSC07642	6	inactive
CG34315 + Orc3	DRSC25371	6	inactive
eIF4E7 (GeneID 31059)	DRSC17782	20	inactive
eIF4E7 (GeneID 31059)	DRSC18623	9	inactive
CG15252 (GeneID 31931)	DRSC17981	10	inactive
CG15252 (GeneID 31931)	DRSC29645	4	inactive
CG6695 (GeneID 42937)	DRSC16098	7	inactive
CG6695 (GeneID 42937)	DRSC24623	8	inactive
mgl (GeneID 8674055)	DRSC17800	7	inactive
mgl (GeneID 8674055)	DRSC17823	6	inactive
mgl (GeneID 8674055)	DRSC17859	17	inactive
mgl (GeneID 8674055)	DRSC23464	2	inactive
l(2)41Ab (GeneID 5740691)	DRSC21007	9	inactive
Cyp308a1 (GeneID 32859)	DRSC20238	6	inactive
Cyp308a1 (GeneID 32859)	DRSC26958	9	inactive
